Publication PMC7356634
These are yes or no findings as the source states them, for the method shown. Binding seen in cells or lysates may run through a third protein. Some binding calls cover weakened binding; strength is not graded here. Tags and fused reporters may be left off the sequences shown.

B1: O-linked N-acetylglucosamine (GlcNAc) transferase (OGT), endogenous (enzyme, UniProt O15294 1-1046)
chain: MASSVGNVADSTEPTKRMLSFQGLAELAHREYQAGDFEAAERHCMQLWRQEPDNTGVLLLLSSIHFQCRRLDRSAHFSTLAIKQNPLLAEAYSNLGNVYKERGQLQEAIEHYRHALRLKPDFIDGYINLAAALVAAGDMEGAVQAYVSALQYNPDLYCVRSDLGNLLKALGRLEEAKACYLKAIETQPNFAVAWSNLGCVFNAQGEIWLAIHHFEKAVTLDPNFLDAYINLGNVLKEARIFDRAVAAYLRALSLSPNHAVVHGNLACVYYEQGLIDLAIDTYRRAIELQPHFPDAYCNLANALKEKGSVAEAEDCYNTALRLCPTHADSLNNLANIKREQGNIEEAVRLYRKALEVFPEFAAAHSNLASVLQQQGKLQEALMHYKEAIRISPTFADAYSNMGNTLKEMQDVQGALQCYTRAIQINPAFADAHSNLASIHKDSGNIPEAIASYRTALKLKPDFPDAYCNLAHCLQIVCDWTDYDERMKKLVSIVADQLEKNRLPSVHPHHSMLYPLSHGFRKAIAERHGNLCLDKINVLHKPPYEHPKDLKLSDGRLRVGYVSSDFGNHPTSHLMQSIPGMHNPDKFEVFCYALSPDDGTNFRVKVMAEANHFIDLSQIPCNGKAADRIHQDGIHILVNMNGYTKGARNELFALRPAPIQAMWLGYPGTSGALFMDYIITDQETSPAEVAEQYSEKLAYMPHTFFIGDHANMFPHLKKKAVIDFKSNGHIYDNRIVLNGIDLKAFLDSLPDVKIVKMKCPDGGDNADSSNTALNMPVIPMNTIAEAVIEMINRGQIQITINGFSISNGLATTQINNKAATGEEVPRTIIVTTRSQYGLPEDAIVYCNFNQLYKIDPSTLQMWANILKRVPNSVLWLLRFPAVGEPNIQQYAQNMGLPQNRIIFSPVAPKEEHVRRGQLADVCLDTPLCNGHTTGMDVLWAGTPMVTMPGETLASRVAASQLTCLGCLELIAKNRQEYEDIAVKLGTDLEYLKKVRGKVWKQRISSPLFNTKQYTMELERLYLQMWEHYAAGNKPDHMIKPVEVTESA
B2: untagged OGT (pcDNA3.1+ OGT) (enzyme, UniProt O15294 1-1046)
chain: B1 chain
B3: TANK-binding kinase 1 (TBK1), pcDNA3-FLAG-TBK1 (enzyme, UniProt Q9UHD2 1-729)
chain: MQSTSNHLWLLSDILGQGATANVFRGRHKKTGDLFAIKVFNNISFLRPVDVQMREFEVLKKLNHKNIVKLFAIEEETTTRHKVLIMEFCPCGSLYTVLEEPSNAYGLPESEFLIVLRDVVGGMNHLRENGIVHRDIKPGNIMRVIGEDGQSVYKLTDFGAARELEDDEQFVSLYGTEEYLHPDMYERAVLRKDHQKKYGATVDLWSIGVTFYHAATGSLPFRPFEGPRRNKEVMYKIITGKPSGAISGVQKAENGPIDWSGDMPVSCSLSRGLQVLLTPVLANILEADQEKCWGFDQFFAETSDILHRMVIHVFSLQQMTAHKIYIHSYNTATIFHELVYKQTKIISSNQELIYEGRRLVLEPGRLAQHFPKTTEENPIFVVSREPLNTIGLIYEKISLPKVHPRYDLDGDASMAKAITGVVCYACRIASTLLLYQELMRKGIRWLIELIKDDYNETVHKKTEVVITLDFCIRNIEKTVKVYEKLMKINLEAAELGEISDIHTKLLRLSSSQGTIETSLQDIDSRLSPGGSLADAWAHQEGTHPKDRNVEKLQVLLNCMTEIYYQFKKDKAERRLAYNEEQIHKFDKQKLYYHATKAMTHFTDECVKKYEAFLNKSEEWIRKMLHLRKQLLSLTNQCFDIEEEVSKYQEYTNELQETLPQKMFTASSGIKHTMTPIYPSSNTLVEMTLGMKKLKEEMEGVVKELAENNHILERFGSLTMDGGLRNVDCL

Experiments:
[1] = target: T1, myc-tagged UL35 (HCMV tegument protein ppUL35) (human cytomegalovirus (HCMV)) (UniProt F5HE12); test: co-IP; HEK293T transfected with one myc-tagged protein; IP with anti-myc antibody and protein A agarose in IP lysis buffer (20 mM Tris-HCl pH 7.5, 150 mM NaCl, 1% IGEPAL CA-630, 0.25% sodium deoxycholate, 0.1% SDS), 7 washes; blot for endogenous OGT
T1 sequence: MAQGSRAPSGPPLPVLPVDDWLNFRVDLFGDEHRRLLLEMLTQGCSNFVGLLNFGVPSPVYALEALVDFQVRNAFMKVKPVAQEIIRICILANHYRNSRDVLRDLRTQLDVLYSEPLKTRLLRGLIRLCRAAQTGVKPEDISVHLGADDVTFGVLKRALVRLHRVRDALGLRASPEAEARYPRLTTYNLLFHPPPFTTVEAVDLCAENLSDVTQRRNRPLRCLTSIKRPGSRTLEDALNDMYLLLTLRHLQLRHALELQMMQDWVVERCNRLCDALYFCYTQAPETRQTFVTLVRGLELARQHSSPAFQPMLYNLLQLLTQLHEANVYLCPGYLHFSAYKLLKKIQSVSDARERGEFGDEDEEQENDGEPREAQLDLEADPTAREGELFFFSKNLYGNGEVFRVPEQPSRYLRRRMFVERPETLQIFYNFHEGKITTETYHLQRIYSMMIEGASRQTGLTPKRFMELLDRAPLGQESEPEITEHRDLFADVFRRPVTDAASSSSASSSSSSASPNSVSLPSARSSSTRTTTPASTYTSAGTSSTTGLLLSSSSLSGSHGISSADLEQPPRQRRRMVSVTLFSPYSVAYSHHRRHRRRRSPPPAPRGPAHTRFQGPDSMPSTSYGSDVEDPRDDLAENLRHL

[2] = target: T2, UL35-HA (C-terminally HA-tagged UL35, wildtype) (human cytomegalovirus (HCMV)) (UniProt F5HE12); test: co-IP
T2 sequence: T1 sequence

Binder	binding [1]	binding [2]
B1	binds	–
B2	–	binds
B3	–	binds
